For assay [1], the target named is TrkB full length (FL, WT) conjugated with GFP, expressed in 293T cells (UniProt Q16620). Briefly: immunoprecipitation of GFP-tagged full-length and truncated TrkB from 293T lysates; binding domain.
Assay [2] addresses human TrkB (recombinant protein coated in ELISA / immobilised in Biacore) (human) (UniProt Q16620). Nature of the assay: ELISA on coated TrkB, antibody at 10 nM, 1 nM and 0.1 nM.
The target is the same in assay [3]. Nature of the assay: ELISA, protein coated on plate, antibody at 10 nM, 1 nM or 0.1 nM.

Chains of the proteins cited; added tags and fusions are not shown. Lines headed by an entry give the natural chain unless they say otherwise; changes in a name come on top. Residues count along the entry.
UniProt Q16620: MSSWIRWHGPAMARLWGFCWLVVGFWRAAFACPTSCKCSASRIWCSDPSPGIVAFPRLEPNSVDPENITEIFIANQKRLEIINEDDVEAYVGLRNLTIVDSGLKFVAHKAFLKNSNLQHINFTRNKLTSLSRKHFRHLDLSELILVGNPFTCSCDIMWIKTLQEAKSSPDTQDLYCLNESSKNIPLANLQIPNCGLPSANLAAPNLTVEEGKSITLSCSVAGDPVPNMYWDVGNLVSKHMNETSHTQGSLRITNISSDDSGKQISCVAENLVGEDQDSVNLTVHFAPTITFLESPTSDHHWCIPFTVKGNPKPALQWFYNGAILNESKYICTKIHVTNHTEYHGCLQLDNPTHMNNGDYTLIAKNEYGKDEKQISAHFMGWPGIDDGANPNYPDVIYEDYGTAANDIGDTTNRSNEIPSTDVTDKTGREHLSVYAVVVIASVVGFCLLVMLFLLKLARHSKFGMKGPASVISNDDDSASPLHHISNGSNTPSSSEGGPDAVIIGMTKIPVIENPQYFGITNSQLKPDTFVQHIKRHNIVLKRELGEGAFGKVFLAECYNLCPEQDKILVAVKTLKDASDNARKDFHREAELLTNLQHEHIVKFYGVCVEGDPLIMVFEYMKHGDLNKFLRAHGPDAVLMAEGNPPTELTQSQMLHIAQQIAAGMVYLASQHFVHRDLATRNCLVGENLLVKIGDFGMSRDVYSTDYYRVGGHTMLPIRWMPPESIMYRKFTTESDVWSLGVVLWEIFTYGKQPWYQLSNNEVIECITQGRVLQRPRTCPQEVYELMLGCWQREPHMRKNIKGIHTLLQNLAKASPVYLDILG
human TrkB (recombinant protein coated in ELISA / immobilised in Biacore): residues 30-430 of Q16620
TrkB full length (FL, WT) conjugated with GFP, expressed in 293T cells: residues 32-822 of Q16620

No constants are given. Whether binding was seen depends on the method and setting. Some results given as binding are weak or reduced against the parent protein; the word gives no strength.

B1: TrkB-agoAb2908 (antibody, IgG1, V domains shown)
VH: QVQLQQSGPELVKPGASVKISCKASGYTFSSSWMNWVKQRPGQGLEWIGRIYPGDGHTNYNGKFKGKATLTADKSSSTAYMQLTSLTSVDSGVYFCARSGYGYGFDCWGQGTTLTVSS
VL: NIVLTQSPASLAVSLGQRATISCRASESVDNYGNSLMHWYQQKPGQPPKLLIYLASNLESGVPARFSGSGSRTDFTLTIDPVEADDAATYYCQQNNEDPPWTFGGGTKLEIKR
With B1, the binding result in assay [1], in assay [2] and in assay [3] was “binds” throughout.

B2: TrkB-agoAb1104 (antibody, IgG1, V domains shown)
VH: QVQLQQSGAELARPGASVKLSCKASGYTFTRYWMQWVKQRPGQGLEWIGAIYPGDGDTRYTQKFKGKATLTADKSSSTAYMQLSSLASEDSAVYYCAGSGLGRAWFTYWGQGTLVTVSA
VL: DIQMTQSPASLSASVGETVTITCRSSENIYSYLAWYQQKQGKSPQLLVYNAKTLAEGVPSRFSGSGSGTQFSLKINSLQPEDFGSYYCQHHYGPPYTFGGGTKLEIK
In the case of B2, the binding entry in assay [2] and in assay [3] was “binds” each time.

B3: TrkB-agoAb303 (antibody, V domains shown)
VH: DVKLVESGGGLVKPGGSLKLSCAASGFTFSSYTMSWVRQTPEKRLEWVATISSGGDYTYFPDSVKGRFTMSRDNAKNALYLQMSSLKSEDTAMYYCTRESGRGDFDYWGQGTTLTVSS
VL: DVLMTQTPLSLPVSLGDQASISCRSSQNIVHSNGNTYLEWYLQKPGQSPNLLIYNVSNRFSGVPDRFSGSGSGTDFTLKISRVEAEDLGVYYCFQGSHFPWTFGGGTKLEIT
notes: Mouse monoclonal antibody
Regarding B3, the binding entry in assay [2] and in assay [3] was “binds” throughout.
